The list is a part of this screen's results and no random one: it is rich in T/C values a quarter to a half above the control, in often repeated tests (any T/C) and in doses without a T/C. Other doses and runs of a compound stand elsewhere. T/C is the treated group as % of the vehicle group. Some entries give survivors of the animals treated and no T/C: the source files T/C as zero there, which appears to mark a toxic dose or a test without result, not a measured value. Some survivor counts are full or nearly so, which does not show that the dose was tolerated: the source hardly ever lists a survival T/C far under the control, and the zero likely stands for such cases as well. Survivors were counted at the toxicity check, usually on the fifth day, unless a day is given; later deaths do not show. Schedule codes are those of the source, read here as Q, the interval in days (D) or hours (H), X, the number of doses. Some entries hold several experiments; their values stand side by side, smallest first. Where survival is the endpoint, this PubChem deposit counts one and a half times the control or more as active, and values a quarter to a half above the control carry no call in these data; other NCI protocols may use other cut-offs. Counts like (3×) say how often a value occurs here. Some T/C values carry the count of animals alive at the toxicity check (mostly the fifth day); without a count, all were alive then. Starred links: 1 amine or outer side, 2 acyl side, 3 side chain; linkers in the order of their positions; H or OH if unused. Positions of bridges follow the written chain, without caps; N, C: chain ends. Non-standard residues stand in square brackets, D forms with d. Residues, ends and D or L forms follow the SMILES beside them. Chains are numbered I, II in the order given. Actinocin(9to1) = Cc1c2oc3c(C)ccc(C(=O)[*:1])c3nc-2c(C(=O)[*:2])c(N)c1=O; NMeV = CN[CH](C(=O)O)C(C)C; Aze = O=C(O)[CH]1CCN1; Sar = CNCC(=O)O
Tested on: BDF1 mice, P815 leukemia ip, survival T/C
Experiment: NCI In Vivo Anticancer Drug Screen. Data for tumor model P815 Mast Cell Leukemia (Ascitic) (intraperitoneal) in B6D2F1 (BDF1) mice
Conditions: higher T/C = longer survival
Procedure: The antitumor activity of compounds was measured in mice bearing transplantable tumors. Survival or tumor size were measured and the results are expressed as the measurement made in the treated group (T) divided by the measurement made in the vehicle treated control group (C). The tumor model used in this assay is P815 Mast Cell Leukemia (Ascitic) (intraperitoneal) in B6D2F1 (BDF1) mice

[1] = T/C endpoint: survival time, mean or median, dose: 80.0 mg/kg/injection, schedule: Q01DX010 (ip), vehicle: saline
[2] = T/C endpoint: survival time, mean or median, dose: 120.0 mg/kg/injection, schedule: Q01DX010 (ip), vehicle: saline
[3] = T/C endpoint: survival time, mean or median, dose: 200.0 mg/kg/injection, schedule: Q01DX010 (ip), vehicle: saline
[4] = T/C endpoint: survival time, mean or median, dose: 125.0 mg/kg/injection, schedule: Q01DX015 (ip), vehicle: carboxymethylcellulose (CMC)
[5] = T/C endpoint: survival time, mean or median, dose: 75.0 mg/kg/injection, schedule: Q01DX015 (ip), vehicle: carboxymethylcellulose (CMC)
[6] = T/C endpoint: survival time, mean or median, dose: 40.0 mg/kg/injection, schedule: Q01DX010 (ip), vehicle: saline
[7] = T/C endpoint: survival time, mean or median, dose: 60.0 mg/kg/injection, schedule: Q01DX010 (ip), vehicle: saline
[8] = T/C endpoint: survival time, mean or median, dose: 4.0 mg/kg/injection, schedule: Q01DX010 (ip), vehicle: other
[9] = T/C endpoint: survival time, mean or median, dose: 8.0 mg/kg/injection, schedule: Q01DX010 (ip), vehicle: other
[10] = T/C endpoint: survival time, mean or median, dose: 16.0 mg/kg/injection, schedule: Q01DX010 (ip), vehicle: other
[11] = T/C endpoint: survival time, mean or median, dose: 32.0 mg/kg/injection, schedule: Q01DX010 (ip), vehicle: other
[12] = T/C endpoint: survival time, mean or median, dose: 160.0 mg/kg/injection, schedule: Q01DX010 (ip), vehicle: saline
[13] = T/C endpoint: survival time, mean or median, dose: 25.0 mg/kg/injection, schedule: Q01DX010 (ip), vehicle: saline

O=C(Nc1cccc(C(=O)Nc2ccc(C3=NCCN3)cc2)c1)c1ccc(C2=NCCN2)cc1
survivor count [1]: 3 of 6 | survivor count [2]: 1 of 6 | survivor count (T/C endpoint: survival time, mean or median, dose: 180.0 mg/kg/injection, schedule: Q01DX010 (ip), vehicle: saline): 0 of 6

NC12CC3CC(CC(C3)C1)C2
survivor count [3]: 2 of 6

CC(=O)NC1=C(N2CC2)C(=O)C(NC(C)=O)=C(N2CC2)C1=O
survivor count (T/C endpoint: survival time, mean or median, dose: 2.0 mg/kg/injection, schedule: Q01DX015 (ip), vehicle: carboxymethylcellulose (CMC)): 9 of 10 | survivor count (T/C endpoint: survival time, mean or median, dose: 4.0 mg/kg/injection, schedule: Q01DX015 (ip), vehicle: carboxymethylcellulose (CMC)): 10 of 10

Oc1cc(CN(CCCl)CCCl)c(O)cc1CN(CCCl)CCCl
T/C (T/C endpoint: survival time, mean or median, dose: 2.5 mg/kg/injection, schedule: Q01DX010 (ip), vehicle: saline): 127 % of control | T/C (T/C endpoint: survival time, mean or median, dose: 5.0 mg/kg/injection, schedule: Q01DX010 (ip), vehicle: saline): 138 % of control

COc1ccc(CSc2ncnc3nc[nH]c23)cc1
survivor count [4]: 10 of 10 | survivor count (T/C endpoint: survival time, mean or median, dose: 250.0 mg/kg/injection, schedule: Q01DX015 (ip), vehicle: carboxymethylcellulose (CMC)): 10 of 10 | survivor count (T/C endpoint: survival time, mean or median, dose: 500.0 mg/kg/injection, schedule: Q01DX015 (ip), vehicle: carboxymethylcellulose (CMC)): 8 of 10

CCOC(=O)c1[nH]c2ccccc2c1CN(CCCl)CCCl
survivor count [1]: 0 of 6

CN(Cc1cnc2nc(N)nc(N)c2n1)c1c(Cl)cc(C(=O)NC(CCC(=O)O)C(=O)O)cc1Cl (configuration not stated)
T/C (T/C endpoint: survival time, mean or median, dose: 2.5 mg/kg/injection, schedule: Q01DX015 (ip), vehicle: carboxymethylcellulose (CMC)): 147 % of control | T/C [5]: 127 % of control | survivor count [4]: 10 of 10

CS(=O)(=O)OCCCl
survivor count (T/C endpoint: survival time, mean or median, dose: 150.0 mg/kg/injection, schedule: Q01DX010 (ip), vehicle: saline): 3 of 6 and 5 of 6

CN=C(NC)c1ccc(NC(=O)c2ccc(C(=O)Nc3ccc(C(=NC)NC)cc3)c(Cl)c2)cc1
survivor count [6]: 6 of 6 | survivor count [7]: 4 of 6

O=C(Nc1ccc(C2=NCCN2)cc1)c1ccc(C(=O)Nc2ccc(C3=NCCN3)cc2)c(Cl)c1
T/C (T/C endpoint: survival time, mean or median, dose: 2.0 mg/kg/injection, schedule: Q01DX010 (ip), vehicle: other): 110 (2×), 111, 120 % of control | T/C (T/C endpoint: survival time, mean or median, dose: 3.0 mg/kg/injection, schedule: Q01DX015 (ip), vehicle: carboxymethylcellulose (CMC)): 133 % of control [9 of 10 alive] | T/C [8]: 116, 126, 127, 131 % of control | T/C [9]: 163, 194, 202, 300 % of control | T/C [10]: 250, 300 (2×), 308 % of control | T/C [11]: 102 and 219 % of control | survivor count [11]: 6 of 6

N#CCSc1ncnc2nc[nH]c12
survivor count [2]: 5 of 6

OCC1OC(n2cnc3c(=S)nc[nH]c32)C(O)C1O (configuration not stated)
T/C [12]: 125 % of control | survivor count [12]: 2 of 6

CCN(CC)CCNc1ccc(C)c2sc3ccccc3c(=O)c12
survivor count (T/C endpoint: survival time, mean or median, dose: 100.0 mg/kg/injection, schedule: Q01DX010 (ip), vehicle: saline): 5 of 6 and 6 of 6 | survivor count [3]: 5 of 6 and 6 of 6

CS(=O)(=O)OCCC(=O)N1CCN(C(=O)CCOS(C)(=O)=O)CC1
T/C (T/C endpoint: survival time, mean or median, dose: 12.5 mg/kg/injection, schedule: Q01DX010 (ip), vehicle: saline): 144 % of control | T/C [13]: 130 % of control

O=C(Nc1ccc(C2=NCCN2)cc1)Nc1cccc(NC(=O)Nc2ccc(C3=NCCN3)cc2)c1
T/C [7]: 128 and 136 % of control | survivor count (T/C endpoint: survival time, mean or median, dose: 480.0 mg/kg/injection, schedule: Q01DX010 (ip), vehicle: saline): 6 of 6

C[N+](C)(C)c1ncnc2nc[nH]c12
survivor count [2]: 3 of 6

CCOC(=O)c1c[nH]c2ccc(N(CCCl)CCCl)cc12
T/C (T/C endpoint: survival time, mean or median, dose: 10.0 mg/kg/injection, schedule: Q01DX010 (ip), vehicle: saline): 137 % of control | T/C (T/C endpoint: survival time, mean or median, dose: 20.0 mg/kg/injection, schedule: Q01DX010 (ip), vehicle: saline): 137 % of control | T/C [6]: 137 % of control

C=CCSc1nc(N)nc2nc[nH]c12
survivor count (T/C endpoint: survival time, mean or median, dose: 125.0 mg/kg/injection, schedule: Q01DX015 (ip), vehicle: other): 7 of 10 | survivor count (T/C endpoint: survival time, mean or median, dose: 150.0 mg/kg/injection, schedule: Q01DX015 (ip), vehicle: other): 8 of 10 | survivor count (T/C endpoint: survival time, mean or median, dose: 200.0 mg/kg/injection, schedule: Q01DX015 (ip), vehicle: other): 5 of 10

Cc1c2oc3c(C)ccc(C(=O)NC4C(=O)NC(C(C)C)C(=O)N5CCC5C(=O)N(C)CC(=O)N(C)C(C(C)C)C(=O)OC4C)c3nc-2c(C(=O)NC2C(=O)NC(C(C)C)C(=O)N3CCC3C(=O)N(C)CC(=O)N(C)C(C(C)C)C(=O)OC2C)c(N)c1=O (configuration not stated) (I: TV[Aze][Sar][NMeV] / II: TV[Aze][Sar][NMeV]; ester I:1-I:C, II:1-II:C; linker I:N-II:N via Actinocin(9to1); configuration not given here)
survivor count (T/C endpoint: median survival time, dose: 2080.0 micrograms/kg/injection, schedule: Q01DX001 (ip), vehicle: saline + alcohol): 7 of 8

CCCCOP(=S)(N1CC1)N1CC1
survivor count (T/C endpoint: survival time, mean or median, dose: 32.0 mg/kg/injection, schedule: Q01DX010 (ip), vehicle: saline): 6 of 6

Nc1nc(SCc2ccccn2)c2[nH]cnc2n1
survivor count (T/C endpoint: survival time, mean or median, dose: 12.5 mg/kg/injection, schedule: Q01DX015 (ip), vehicle: carboxymethylcellulose (CMC)): 10 of 10 | survivor count (T/C endpoint: survival time, mean or median, dose: 25.0 mg/kg/injection, schedule: Q01DX015 (ip), vehicle: carboxymethylcellulose (CMC)): 10 of 10 | survivor count (T/C endpoint: survival time, mean or median, dose: 50.0 mg/kg/injection, schedule: Q01DX015 (ip), vehicle: carboxymethylcellulose (CMC)): 10 of 10 | survivor count (T/C endpoint: survival time, mean or median, dose: 100.0 mg/kg/injection, schedule: Q01DX015 (ip), vehicle: carboxymethylcellulose (CMC)): 10 of 10

N=[N+]=CC(=O)OCC(N)C(=O)O (configuration not stated)
survivor count [13]: 6 of 6

CC(C)CNS(=O)(=O)c1ncnc2nc[nH]c12
survivor count [5]: 10 of 10 | survivor count (T/C endpoint: survival time, mean or median, dose: 150.0 mg/kg/injection, schedule: Q01DX015 (ip), vehicle: carboxymethylcellulose (CMC)): 5 of 10

OCC1OC(n2cnc3c(Cl)ncnc32)C(O)C1O (configuration not stated)
survivor count (T/C endpoint: survival time, mean or median, dose: 500.0 mg/kg/injection, schedule: Q01DX010 (ip), vehicle: saline): 6 of 6

C[C@@H]1C[C@H]2CC[C@H](O2)[C@H](C)C(=O)O[C@@H](C)C[C@@H]2CC[C@@H](O2)[C@@H](C)C(=O)O[C@H](C)C[C@H]2CC[C@H](O2)[C@H](C)C(=O)O[C@@H](C)C[C@@H]2CC[C@@H](O2)[C@@H](C)C(=O)O1
survivor count (T/C endpoint: survival time, mean or median, dose: 45.0 mg/kg/injection, schedule: Q01DX015 (ip), vehicle: other): 10 of 10 | survivor count (T/C endpoint: survival time, mean or median, dose: 90.0 mg/kg/injection, schedule: Q01DX015 (ip), vehicle: other): 10 of 10 | survivor count (T/C endpoint: survival time, mean or median, dose: 180.0 mg/kg/injection, schedule: Q01DX015 (ip), vehicle: other): 10 of 10 | survivor count (T/C endpoint: survival time, mean or median, dose: 360.0 mg/kg/injection, schedule: Q01DX015 (ip), vehicle: other): 10 of 10

NOCc1cscn1
survivor count (T/C endpoint: median survival time, dose: 100.0 mg/kg/injection, schedule: Q01DX010 (ip), vehicle: saline sonified): 6 of 6 | survivor count (T/C endpoint: median survival time, dose: 200.0 mg/kg/injection, schedule: Q01DX010 (ip), vehicle: saline sonified): 2 of 6

O=C(Nc1ccc(C2=NCCN2)cc1)c1ccc(C(=O)Nc2ccc(C3=NCCN3)cc2)cc1
T/C [8]: 147, 150, 158, 174 % of control | T/C [9]: 155, 157, 219, 271 % of control | T/C [10]: 152, 173, 177, 214 % of control | T/C [11]: 140 (2×), 150, 155 % of control | T/C (T/C endpoint: survival time, mean or median, dose: 64.0 mg/kg/injection, schedule: Q01DX010 (ip), vehicle: other): 122 (2×), 142, 152 % of control
